PubChem BioAssay AID493246 | Drosophila RNAi Screening Center | 2011

- Purpose: 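Identify essential fly genes by loss of cell viability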 (primary screen)
- Cell system: Drosophila Kc and S2R+ cells
- Reagents: long dsRNA against Drosophila genes
- Measured: 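Cell number per well after knock-down, printed as raw plate values; calls were based on per-plate z-scores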
- Reading the numbers: Kc cell number and S2R+ cell number: higher = more cells remaining
- Call rule: 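Counted as a hit if cell number falls by a z-score of at least 3 within its plate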
In all, the deposit lists about 21,000 reagents; this is a random part of those with a known target gene and a result. In the full data, 429 (2%) got an active call. 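Values are raw and not normalised between plates; calls rest on per-plate z-scores that were not deposited.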 Unmarked entries are inactive. Not stated in the record: the amount of reagent, the time to read-out.

Nhe3 (GeneID 33939) [DRSC03380] — Kc cell number, rep 1 = 1.47e6; Kc cell number, rep 2 = 1.41e6; S2R+ cell number, rep 1 = 1.08e6; S2R+ cell number, rep 2 = 1.27e6
BEAF-32 (GeneID 36645) [DRSC05927] — Kc cell number, rep 1 = 1.42e6; Kc cell number, rep 2 = 1.47e6; S2R+ cell number, rep 1 = 1.16e6; S2R+ cell number, rep 2 = 1.29e6
nAChRalpha5 (GeneID 34826) [DRSC01360] — Kc cell number, rep 1 = 1.51e6; Kc cell number, rep 2 = 1.65e6; S2R+ cell number, rep 1 = 9.23e5; S2R+ cell number, rep 2 = 1.15e6
nAChRalpha5 (GeneID 34826) [DRSC01946] — Kc cell number, rep 1 = 1.71e6; Kc cell number, rep 2 = 1.66e6; S2R+ cell number, rep 1 = 1.35e6; S2R+ cell number, rep 2 = 1.53e6
nAChRalpha5 (GeneID 34826) [DRSC01947] — Kc cell number, rep 1 = 1.65e6; Kc cell number, rep 2 = 1.67e6; S2R+ cell number, rep 1 = 1.34e6; S2R+ cell number, rep 2 = 1.49e6
VGlut (GeneID 33427) [DRSC00733] — Kc cell number, rep 1 = 1.34e6; Kc cell number, rep 2 = 1.27e6; S2R+ cell number, rep 1 = 9.79e5; S2R+ cell number, rep 2 = 1.14e6
ND1 (retired record) (GeneID 192473) [DRSC21273] — Kc cell number, rep 1 = 1.62e6; Kc cell number, rep 2 = 1.65e6; S2R+ cell number, rep 1 = 1.11e6; S2R+ cell number, rep 2 = 1.29e6
HLH4C (GeneID 31397) [DRSC18670] — Kc cell number, rep 1 = 1.31e6; Kc cell number, rep 2 = 1.25e6; S2R+ cell number, rep 1 = 1.03e6; S2R+ cell number, rep 2 = 1.15e6
c(3)G (GeneID 47765) [DRSC15245] — Kc cell number, rep 1 = 1.58e6; Kc cell number, rep 2 = 1.72e6; S2R+ cell number, rep 1 = 1.15e6; S2R+ cell number, rep 2 = 1.32e6
lqf (GeneID 38846) [DRSC11363] — Kc cell number, rep 1 = 1.42e6; Kc cell number, rep 2 = 1.49e6; S2R+ cell number, rep 1 = 1.32e6; S2R+ cell number, rep 2 = 1.26e6
icln (GeneID 36997) [DRSC07630] — Kc cell number, rep 1 = 1.58e6; Kc cell number, rep 2 = 1.62e6; S2R+ cell number, rep 1 = 1.12e6; S2R+ cell number, rep 2 = 1.29e6
CG13603 (GeneID 42838) [DRSC14606] — Kc cell number, rep 1 = 1.50e6; Kc cell number, rep 2 = 1.45e6; S2R+ cell number, rep 1 = 1.17e6; S2R+ cell number, rep 2 = 1.21e6
Dlip2 (GeneID 40579) [DRSC12346] — Kc cell number, rep 1 = 1.56e6; Kc cell number, rep 2 = 1.61e6; S2R+ cell number, rep 1 = 1.41e6; S2R+ cell number, rep 2 = 1.51e6
Pif1A (GeneID 8674049) [DRSC12708] — Kc cell number, rep 1 = 1.38e6; Kc cell number, rep 2 = 1.40e6; S2R+ cell number, rep 1 = 1.10e6; S2R+ cell number, rep 2 = 1.30e6
Pif1A (GeneID 8674049) [DRSC14383] — Kc cell number, rep 1 = 1.35e6; Kc cell number, rep 2 = 1.53e6; S2R+ cell number, rep 1 = 1.30e6; S2R+ cell number, rep 2 = 1.41e6
stc (GeneID 34888) [DRSC03620] — Kc cell number, rep 1 = 1.22e6; Kc cell number, rep 2 = 1.35e6; S2R+ cell number, rep 1 = 1.28e6; S2R+ cell number, rep 2 = 1.28e6
CG11811 (GeneID 39213) [DRSC09862] — Kc cell number, rep 1 = 1.23e6; Kc cell number, rep 2 = 1.40e6; S2R+ cell number, rep 1 = 1.19e6; S2R+ cell number, rep 2 = 1.28e6
Rcd-1 (GeneID 32966) [DRSC19569] — Kc cell number, rep 1 = 1.53e6; Kc cell number, rep 2 = 1.49e6; S2R+ cell number, rep 1 = 1.12e6; S2R+ cell number, rep 2 = 1.23e6
CG15756 (GeneID 32308) [DRSC19721] — Kc cell number, rep 1 = 1.67e6; Kc cell number, rep 2 = 1.57e6; S2R+ cell number, rep 1 = 1.07e6; S2R+ cell number, rep 2 = 1.23e6
CG18004 (GeneID 36154) [DRSC06705] — Kc cell number, rep 1 = 1.68e6; Kc cell number, rep 2 = 1.65e6; S2R+ cell number, rep 1 = 1.43e6; S2R+ cell number, rep 2 = 1.53e6
CG1965 (GeneID 40842) [DRSC12577] — Kc cell number, rep 1 = 1.50e6; Kc cell number, rep 2 = 1.57e6; S2R+ cell number, rep 1 = 1.14e6; S2R+ cell number, rep 2 = 1.19e6

Part of the list above, set out differently:
icln (GeneID 36997) [DRSC07630]
- Kc cell number, rep 1: 1.58e6
- Kc cell number, rep 2: 1.62e6
- S2R+ cell number, rep 1: 1.12e6
- S2R+ cell number, rep 2: 1.29e6

CG13603 (GeneID 42838) [DRSC14606]
- Kc cell number, rep 1: 1.50e6
- Kc cell number, rep 2: 1.45e6
- S2R+ cell number, rep 1: 1.17e6
- S2R+ cell number, rep 2: 1.21e6
